No constants are given. Whether binding was seen depends on the method and setting. Binding seen in cells or lysates may run through a third protein. Sequences can lack the tags named with a protein.

Our source for the binding values is paper doi:10.1101/2021.09.27.462041.

This assay addresses T1, HA-tagged N-terminal (HA-NT) DIDO3 fragment, DIDO3(1-528) (mouse) (UniProt Q8C9B9).
T1 sequence: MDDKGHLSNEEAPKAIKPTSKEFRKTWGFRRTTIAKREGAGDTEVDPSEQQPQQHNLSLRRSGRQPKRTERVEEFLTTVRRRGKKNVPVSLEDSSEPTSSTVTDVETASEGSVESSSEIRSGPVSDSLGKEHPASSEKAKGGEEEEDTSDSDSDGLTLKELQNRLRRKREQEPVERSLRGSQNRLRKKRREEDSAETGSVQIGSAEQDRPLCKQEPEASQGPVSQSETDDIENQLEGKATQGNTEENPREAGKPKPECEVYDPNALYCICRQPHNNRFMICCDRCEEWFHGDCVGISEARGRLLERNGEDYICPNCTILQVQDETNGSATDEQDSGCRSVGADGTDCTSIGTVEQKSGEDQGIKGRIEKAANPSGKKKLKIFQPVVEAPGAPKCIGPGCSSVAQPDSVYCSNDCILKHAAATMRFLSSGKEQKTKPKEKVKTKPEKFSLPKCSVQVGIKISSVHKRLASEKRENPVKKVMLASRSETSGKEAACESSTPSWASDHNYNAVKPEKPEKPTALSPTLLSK
As to the kind of experiment: co-IP.

B1: CTCF (protein, UniProt Q61164 1-736)
chain: MEGEAVEAIVEESETFIKGKERKTYQRRREGGQEEDACHLPQNQTDGGEVVQDVNSSVQMVMMEQLDPTLLQMKTEVMEGTVAPEAEAAVDDTQIITLQVVNMEEQPINIGELQLVQVPVPVTVPVATTSVEELQGAYENEVSKEGLAESEPMICHTLPLPEGFQVVKVGANGEVETLEQGELPPQEDSSWQKDPDYQPPAKKTKKTKKSKLRYTEEGKDVDVSVYDFEEEQQEGLLSEVNAEKVVGNMKPPKPTKIKKKGVKKTFQCELCSYTCPRRSNLDRHMKSHTDERPHKCHLCGRAFRTVTLLRNHLNTHTGTRPHKCPDCDMAFVTSGELVRHRRYKHTHEKPFKCSMCDYASVEVSKLKRHIRSHTGERPFQCSLCSYASRDTYKLKRHMRTHSGEKPYECYICHARFTQSGTMKMHILQKHTENVAKFHCPHCDTVIARKSDLGVHLRKQHSYIEQGKKCRYCDAVFHERYALIQHQKSHKNEKRFKCDQCDYACRQERHMIMHKRTHTGEKPYACSHCDKTFRQKQLLDMHFKRYHDPNFVPAAFVCSKCGKTFTRRNTMARHADNCAGPDGVEGENGGETKKSKRGRKRKMRSKKEDSSDSEENAEPDLDDNEEEEEPAVEIEPEPEPQPQPPPPPQPVAPAPPPAKKRRGRPPGRTNQPKQNQPTAIIQVEDQNTGAIENIIVEVKKEPDAEPAEGEEEEAQAATTDAPNGDLTPEMILSMMDR
Turning to B1, the binding entry is “no binding”.
